Results are given in words; binding and its absence hold for the method and conditions named. In cells and extracts the contact can be indirect. A yes stands for co-enrichment or nearness to the bait. Other partners may have been found.

Consider one molecule from article PMC8134555.

The target in this assay is T1, macrophage migration inhibitory factor (MIF), endogenous (human (endogenous in MDA-MB-231 and HeLa)) (UniProt P14174).
T1 sequence: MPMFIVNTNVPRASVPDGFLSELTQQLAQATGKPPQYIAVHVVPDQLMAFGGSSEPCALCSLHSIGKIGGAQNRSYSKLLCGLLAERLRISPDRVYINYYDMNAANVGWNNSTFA
In words: affinity purification with mass spectrometry; immunoprecipitation of endogenous MIF from HeLa cells, DMSO or 4 h after MNNG (50 uM, 15 min); MIF KO cells as negative control; hits found under both conditions.

B1: Mus81, endogenous (protein, UniProt Q96NY9 1-551)
chain: MAAPVRLGRKRPLPACPNPLFVRWLTEWRDEATRSRRRTRFVFQKALRSLRRYPLPLRSGKEAKILQHFGDGLCRMLDERLQRHRTSGGDHAPDSPSGENSPAPQGRLAEVQDSSMPVPAQPKAGGSGSYWPARHSGARVILLVLYREHLNPNGHHFLTKEELLQRCAQKSPRVAPGSARPWPALRSLLHRNLVLRTHQPARYSLTPEGLELAQKLAESEGLSLLNVGIGPKEPPGEETAVPGAASAELASEAGVQQQPLELRPGEYRVLLCVDIGETRGGGHRPELLRELQRLHVTHTVRKLHVGDFVWVAQETNPRDPANPGELVLDHIVERKRLDDLCSSIIDGRFREQKFRLKRCGLERRVYLVEEHGSVHNLSLPESTLLQAVTNTQVIDGFFVKRTADIKESAAYLALLTRGLQRLYQGHTLRSRPWGTPGNPESGAMTSPNPLCSLLTFSDFNAGAIKNKAQSVREVFARQLMQVRGVSGEKAAALVDRYSTPASLLAAYDACATPKEQETLLSTIKCGRLQRNLGPALSRTLSQLYCSYGPLT
As to B1, the binding result is recorded as “binds”.
